Primary screen of a compound library

Mtb cholesterol medium: 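Phenotypic screen: M. tuberculosis growth, cholesterol and DPPC medium, 4 days; the read-out is not stated. Tested at 50 µM. Direction is inferred from retests: higher values go with more growth inhibition. Size under these conditions: about 69,000 compounds, about 370 of them at 50% or above in at least one test.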
Mtb glucose medium: 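Phenotypic screen: M. tuberculosis growth, glucose 7H9 medium, 3 days; the read-out is not stated. Compounds at 50 µM. The record gives no direction; compounds that gave an IC50 in retests scored well above the rest, so higher reads as more growth inhibition. Of about 69,000 compounds tested this way, about 760 (1.1%) reached 50% or more in at least one test.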

Results are given as percent effect.
The record does not define 0% and 100%; most values in the screen are far below 50% and negative numbers occur (in some assays of this library far below -100).
This is an unselected part of the compounds tested.
Two or more numbers in one place are separate tests of the same structure; such repeats can differ widely.

* COc1ccnc(CN(C)C(=O)CSc2nnc(N)s2)c1 : Mtb cholesterol medium: 10.58%; Mtb glucose medium: 17.31%
* CCn1ccc(-c2cc(C(=O)O)n3nc(C)c(Cl)c3n2)n1 : Mtb cholesterol medium: 6.199%; Mtb glucose medium: 1.813% and 6.194%
* COc1cnc(C2(O)CCN(C(=O)c3scnc3C)CC2)c(OC)n1 : Mtb cholesterol medium: -4.396%; Mtb glucose medium: -18.24%
* [H][C@@]12CCN(CC3CC3)C[C@]1([H])OCCN(c1cccnc1)C2=O : Mtb cholesterol medium: -25.07%; Mtb glucose medium: -34.38% and -4.489%
* CC(=O)Nc1ncc(S(=O)(=O)N2CCN(C3CCCCC3)CC2)s1 : Mtb cholesterol medium: -10.9%; Mtb glucose medium: 21.6%
* CCOc1ccc(CNCC(O)c2ccccc2)cc1Cl.Cl (centres unmarked) : Mtb cholesterol medium: 26.44%; Mtb glucose medium: 8.432%
* Cc1nc(C)n(C2CCCN(C(=O)CCc3cscn3)C2)n1 (centres unmarked) : Mtb cholesterol medium: -28.54%; Mtb glucose medium: -27.89%
* O=C(O)C(F)(F)F.[H][C@@]12CCN(C3CCOCC3)C[C@]1([H])[C@@H](CNC(=O)c1cnn(C)c1)OC2 : Mtb cholesterol medium: 7.923%; Mtb glucose medium: -3.159% and 0.7023%
* [H][C@@]12CN(C3CCCCC3)C(=O)N1CCN(S(C)(=O)=O)C2 : Mtb cholesterol medium: -7.964%; Mtb glucose medium: 0.2514% and -3.969%
* Cc1nc(COCC2CNCc3nccn3C2)cs1 (centres unmarked) : Mtb cholesterol medium: -18.08%; Mtb glucose medium: -8.159% and -29.86%
* CCc1c(C)nc2cc(C3CCN(Cc4cccnc4)C3)nn2c1O (centres unmarked) : Mtb cholesterol medium: 6.052%; Mtb glucose medium: 9.493%
* CSCC(=O)N(C)Cc1ccc(N(C)C)cc1 : Mtb cholesterol medium: 13.08%; Mtb glucose medium: 12.2%
* CN(Cc1cc(C(C)(C)C)n[nH]1)C(=O)CCC(=O)NC1CCCC1 : Mtb cholesterol medium: 15.86%; Mtb glucose medium: -3.815%
* CCOC(=O)c1sc(NC(=O)c2cc(=O)c(OC)c[nH]2)nc1C : Mtb cholesterol medium: -0.7806%; Mtb glucose medium: -20.34%
* Cc1nc(CN2CCCN(Cc3nc4ccccc4o3)CC2)no1 : Mtb cholesterol medium: 4.913%; Mtb glucose medium: 30.59%
* CC(C)(C)C(=O)NCCCc1nc2ccccc2[nH]1 : Mtb cholesterol medium: -16.41%; Mtb glucose medium: -20.82% and -5.463%
* CN(C)CCN1CCC(CNCc2c[nH]nc2C(C)(C)C)CC1 : Mtb cholesterol medium: -43.85%; Mtb glucose medium: -39.65%
* CCC(Nc1nccc(C2CCCC2)n1)c1ncccc1C (centres unmarked) : Mtb cholesterol medium: -0.5943% and -3.842%; Mtb glucose medium: 8.434% and -0.6889%
* N#Cc1cccnc1NC1CCN(c2ccccc2OC(F)F)C1=O (centres unmarked) : Mtb cholesterol medium: -19.62%; Mtb glucose medium: 39.84% and -38.76%
* CN(C)[C@@H]1CO[C@H](CNC(=O)Nc2ccccc2)[C@H]1O : Mtb cholesterol medium: -18.73%; Mtb glucose medium: -28.4% and -3.769%
* Oc1ccc(N2CCN(Cc3cc4c(cc3Br)OCCO4)CC2)cc1 : Mtb cholesterol medium: -4.806%; Mtb glucose medium: -24.12% and 12.17%
* COc1cccc(-c2cc(C(=O)N3N=C(C)CC3(O)C(F)F)[nH]n2)c1 (centres unmarked) : Mtb cholesterol medium: 2.711%; Mtb glucose medium: 10.32%
* O=C(O)C(F)(F)F.O=C(O)C(F)(F)F.[H][C@]12C[C@@H](C(=O)Nc3cccnc3)CO[C@@]1([H])CCN(c1ncc(F)cn1)C2 : Mtb cholesterol medium: 7.69%; Mtb glucose medium: 2.145%
* Cc1ccc(CN2CCC(O)(Cn3ccc4ncccc43)CC2)o1.Cl : Mtb cholesterol medium: 2.029%; Mtb glucose medium: -1.686%

The last 2 entries again:

{"structure": "O=C(O)C(F)(F)F.O=C(O)C(F)(F)F.[H][C@]12C[C@@H](C(=O)Nc3cccnc3)CO[C@@]1([H])CCN(c1ncc(F)cn1)C2", "Mtb cholesterol medium": 7.69, "Mtb glucose medium": 2.145}
{"structure": "Cc1ccc(CN2CCC(O)(Cn3ccc4ncccc43)CC2)o1.Cl", "Mtb cholesterol medium": 2.029, "Mtb glucose medium": -1.686}

Data taken from ChEMBL document CHEMBL3988442, “University of Dundee, Small-Polar-MMV Screening Library” (2021).